Patent US20110319337A1
These are yes or no findings as the source states them, for the method shown. Some entries that bind do so weakly or less than the wild type. Where a sequence is shown, tags or fusion partners need not be part of it.

Key:
[1] = target: T1, recombinant Fzd8-Fc (Rattus norvegicus (Rat)) (UniProt Q498S8); assay: conclusion of Example 1 (immunoprecipitation and TOPflash reporter)
T1 sequence: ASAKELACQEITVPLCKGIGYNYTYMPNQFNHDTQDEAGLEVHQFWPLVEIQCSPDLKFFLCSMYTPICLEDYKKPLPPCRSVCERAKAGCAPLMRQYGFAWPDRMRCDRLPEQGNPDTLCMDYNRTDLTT

[2] = target: T1, recombinant Fzd8-Fc (Rattus norvegicus (Rat)); assay: immunoprecipitation of recombinant proteins, Western blot

binding [1]: binds | binding [2]: binds
B1: recombinant Wnt-2-GST (ligand, not shown: a dimerising Fc or GST)
chain: SWWYMRATGGSSRVMCDNVPGLVSSQRQLCHRHPDVMRAISQGVAEWTAECQHQFRQHRWNCNTLDRDHSLFGRVLLRSSRESAFVYAISSAGVVFAITRACSQGEVKSCSCDPKKMGSAKDSKGIFDWGGCSDNIDYGIKFARAFVDAKERKGKDARALMNLHNNRAGRKAVKRFLKQECKCHGVSGSCTLRTCWLAMADFRKTGDYLWRKYNGAIQVVMNQDGTGFTVANERFKKPTKNDLVYFENSPDYCIRDREAGSLGTAGRVCNLTSRGMDSCEVMCCGRGYDTSHVTRMTKCGCKFHWCCAVRCQDCLEALDVHTCKAPKNADWTTAT
